Construct, isoform or probe ends are uncertain for at least one entry. A weaker result is weaker than the reference pair of the same experiment. Protein sequences can lack the tags named with them. At least one verdict rests on a figure or table, not on a statement of the authors.
Biological target: T1, CsiR (Escherichia coli BW25113 (K-12)) (UniProt P37338)
T1 sequence (looked up): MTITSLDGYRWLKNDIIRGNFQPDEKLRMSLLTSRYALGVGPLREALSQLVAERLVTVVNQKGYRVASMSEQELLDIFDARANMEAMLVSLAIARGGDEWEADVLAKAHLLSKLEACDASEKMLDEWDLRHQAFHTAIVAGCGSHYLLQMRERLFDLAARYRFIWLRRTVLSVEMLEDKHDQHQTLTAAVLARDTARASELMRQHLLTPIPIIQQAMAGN
Assay: filter binding
Conditions: 5 mM MgCl2, Filter binding: 50 mM Tris-HCl, 100 mM KCl, 50 mM NaCl, 5 mM MgCl2, pH 7.6, 15 min, recombinant protein, residues 1-220, protein details: N-terminal 6xHis (pET28a, NdeI/XhoI sites), label: 5'-32P on MS161 strand, probe letters rebuilt from the primers and the genome

“CCCGATAAAACGGGGCAGATAATATGTTTAGTTTACTAACGGTCATTTTGCAGTGAAGCCATTTACTGTTTTTTATCGACCAGATAATCTGTTCTCTAATGTTAACTCCCCCTAACCTGTTGCTTTAGTTATTCATTTCCTGTCTCACTTTGCCTTAATACCCTACGTTAAATGTTACTAATTTGTTGCTTTTGATCACAATAAGAAAACAATATGTCGCTTTTGTGCGCATTTTTCAGAAATGTAGATATTTTTAGATTATGGCTACGAAATGAGCATCGCCATGTCACCCTACATCTCATAAGAGGATCGCTTCTGATGAATGCACTGACCGCCGTACAAAATAACGCTGTCGATTCAGGCCAGGACTAT (double strand) [csiD promoter PCR product MS161/MS162]”: binds more weakly (1 mM alpha-ketoglutarate (lesser effect than glutarate)); binds more weakly (1 mM glutarate); binds (no ligand (control)).

From paper PMC6265302, “Widespread bacterial lysine degradation proceeding via glutarate and L-2-hydroxyglutarate” (Nature Communications, 2018)
